Assay results from US20140335539A1.
These are yes or no findings as the source states them, for the method shown. Some binding calls cover weakened binding; strength is not graded here.

Protein sequences, listed by entry. Tags and fused reporters are not part of them. Lines headed by an entry give the natural chain unless they say otherwise; changes in a name come on top. Residues count along the entry.
UniProt Q92793, residues 587-666: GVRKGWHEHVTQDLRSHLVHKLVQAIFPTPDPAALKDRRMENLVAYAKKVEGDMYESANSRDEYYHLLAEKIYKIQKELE
UniProt P16220, residues 87-146: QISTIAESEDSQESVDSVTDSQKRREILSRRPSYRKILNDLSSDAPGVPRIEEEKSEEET
UniProt P25963: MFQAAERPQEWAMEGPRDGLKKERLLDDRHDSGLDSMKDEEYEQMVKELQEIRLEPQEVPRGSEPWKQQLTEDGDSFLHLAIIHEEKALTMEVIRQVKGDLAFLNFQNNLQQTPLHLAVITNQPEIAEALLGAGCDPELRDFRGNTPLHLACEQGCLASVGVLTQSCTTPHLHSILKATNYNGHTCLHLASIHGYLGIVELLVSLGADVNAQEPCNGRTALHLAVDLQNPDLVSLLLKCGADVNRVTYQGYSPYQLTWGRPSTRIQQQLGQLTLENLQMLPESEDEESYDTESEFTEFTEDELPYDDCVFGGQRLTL

What was measured:
CBP = CBP (UniProt Q92793)
[1] = target: complex containing p50 and p65 (p62(PB1)-p50 with AG-p65); assay: anti-IκBα immunostaining at the same locations as the AG fluorescent foci, HeLaS3 cells

Row | binding (CBP) | binding [1] | Substance
1 | binds |  | CREB (from UniProt P16220 87-146)
2 |  | binds | IκBα (from UniProt P25963 1-317)
